Drawing on US20200339676A1 (University of California, published 2020), this text covers binding for three molecules.

The chains behind the UniProt entries cited, without tags or fusion partners. Residues count along the entry.
UniProt P31695, residues 21-1964: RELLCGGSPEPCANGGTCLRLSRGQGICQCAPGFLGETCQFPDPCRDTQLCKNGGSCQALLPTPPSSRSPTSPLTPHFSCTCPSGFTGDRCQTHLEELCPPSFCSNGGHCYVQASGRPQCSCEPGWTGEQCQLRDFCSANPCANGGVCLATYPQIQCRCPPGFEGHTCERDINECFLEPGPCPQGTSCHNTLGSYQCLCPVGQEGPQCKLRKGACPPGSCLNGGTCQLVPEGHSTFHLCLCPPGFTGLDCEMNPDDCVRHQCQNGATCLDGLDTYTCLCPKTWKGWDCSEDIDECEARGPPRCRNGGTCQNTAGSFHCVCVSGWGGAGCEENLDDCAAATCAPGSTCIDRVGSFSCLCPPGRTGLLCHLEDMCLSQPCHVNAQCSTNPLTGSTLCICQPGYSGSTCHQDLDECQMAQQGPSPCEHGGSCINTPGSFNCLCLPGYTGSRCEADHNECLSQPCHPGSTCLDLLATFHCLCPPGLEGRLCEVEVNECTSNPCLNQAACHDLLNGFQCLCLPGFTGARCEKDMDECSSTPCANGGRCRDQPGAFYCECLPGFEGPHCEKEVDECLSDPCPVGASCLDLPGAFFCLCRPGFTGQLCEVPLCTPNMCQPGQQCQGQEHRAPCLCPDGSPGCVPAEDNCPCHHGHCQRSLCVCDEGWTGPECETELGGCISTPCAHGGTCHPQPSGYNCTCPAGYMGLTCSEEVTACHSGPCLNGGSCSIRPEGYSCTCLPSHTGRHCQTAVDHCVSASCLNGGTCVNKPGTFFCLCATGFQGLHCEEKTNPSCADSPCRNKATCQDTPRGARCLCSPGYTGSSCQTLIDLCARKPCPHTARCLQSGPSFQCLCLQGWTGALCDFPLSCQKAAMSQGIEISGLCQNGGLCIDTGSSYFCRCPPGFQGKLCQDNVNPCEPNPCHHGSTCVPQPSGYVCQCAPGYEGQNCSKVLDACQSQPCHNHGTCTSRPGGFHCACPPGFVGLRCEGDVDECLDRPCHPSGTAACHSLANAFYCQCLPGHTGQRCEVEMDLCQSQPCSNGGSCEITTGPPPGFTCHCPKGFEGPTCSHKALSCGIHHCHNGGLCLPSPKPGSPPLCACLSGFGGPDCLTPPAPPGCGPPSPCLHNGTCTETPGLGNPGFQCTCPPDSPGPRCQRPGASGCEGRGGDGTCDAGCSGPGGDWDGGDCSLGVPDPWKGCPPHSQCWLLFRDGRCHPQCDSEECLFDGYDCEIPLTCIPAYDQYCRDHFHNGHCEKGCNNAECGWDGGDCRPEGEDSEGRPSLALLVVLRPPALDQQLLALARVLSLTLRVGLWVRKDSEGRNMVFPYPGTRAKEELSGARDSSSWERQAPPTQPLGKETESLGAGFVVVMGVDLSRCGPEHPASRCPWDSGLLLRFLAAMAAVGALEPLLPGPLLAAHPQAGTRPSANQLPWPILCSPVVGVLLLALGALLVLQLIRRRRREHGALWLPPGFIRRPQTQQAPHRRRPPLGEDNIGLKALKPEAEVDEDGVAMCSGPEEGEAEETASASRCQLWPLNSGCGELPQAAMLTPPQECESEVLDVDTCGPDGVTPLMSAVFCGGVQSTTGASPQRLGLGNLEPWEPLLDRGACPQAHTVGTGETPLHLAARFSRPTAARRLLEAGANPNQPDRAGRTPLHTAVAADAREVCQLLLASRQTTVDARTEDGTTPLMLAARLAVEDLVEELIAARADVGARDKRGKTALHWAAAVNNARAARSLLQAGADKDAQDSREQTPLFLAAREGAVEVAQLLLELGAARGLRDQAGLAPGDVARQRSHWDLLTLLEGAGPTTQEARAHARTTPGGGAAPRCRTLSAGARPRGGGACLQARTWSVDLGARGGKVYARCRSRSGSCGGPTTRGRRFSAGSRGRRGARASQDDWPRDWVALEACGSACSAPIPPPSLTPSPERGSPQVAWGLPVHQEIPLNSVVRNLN
UniProt Q99466, residues 24-2003: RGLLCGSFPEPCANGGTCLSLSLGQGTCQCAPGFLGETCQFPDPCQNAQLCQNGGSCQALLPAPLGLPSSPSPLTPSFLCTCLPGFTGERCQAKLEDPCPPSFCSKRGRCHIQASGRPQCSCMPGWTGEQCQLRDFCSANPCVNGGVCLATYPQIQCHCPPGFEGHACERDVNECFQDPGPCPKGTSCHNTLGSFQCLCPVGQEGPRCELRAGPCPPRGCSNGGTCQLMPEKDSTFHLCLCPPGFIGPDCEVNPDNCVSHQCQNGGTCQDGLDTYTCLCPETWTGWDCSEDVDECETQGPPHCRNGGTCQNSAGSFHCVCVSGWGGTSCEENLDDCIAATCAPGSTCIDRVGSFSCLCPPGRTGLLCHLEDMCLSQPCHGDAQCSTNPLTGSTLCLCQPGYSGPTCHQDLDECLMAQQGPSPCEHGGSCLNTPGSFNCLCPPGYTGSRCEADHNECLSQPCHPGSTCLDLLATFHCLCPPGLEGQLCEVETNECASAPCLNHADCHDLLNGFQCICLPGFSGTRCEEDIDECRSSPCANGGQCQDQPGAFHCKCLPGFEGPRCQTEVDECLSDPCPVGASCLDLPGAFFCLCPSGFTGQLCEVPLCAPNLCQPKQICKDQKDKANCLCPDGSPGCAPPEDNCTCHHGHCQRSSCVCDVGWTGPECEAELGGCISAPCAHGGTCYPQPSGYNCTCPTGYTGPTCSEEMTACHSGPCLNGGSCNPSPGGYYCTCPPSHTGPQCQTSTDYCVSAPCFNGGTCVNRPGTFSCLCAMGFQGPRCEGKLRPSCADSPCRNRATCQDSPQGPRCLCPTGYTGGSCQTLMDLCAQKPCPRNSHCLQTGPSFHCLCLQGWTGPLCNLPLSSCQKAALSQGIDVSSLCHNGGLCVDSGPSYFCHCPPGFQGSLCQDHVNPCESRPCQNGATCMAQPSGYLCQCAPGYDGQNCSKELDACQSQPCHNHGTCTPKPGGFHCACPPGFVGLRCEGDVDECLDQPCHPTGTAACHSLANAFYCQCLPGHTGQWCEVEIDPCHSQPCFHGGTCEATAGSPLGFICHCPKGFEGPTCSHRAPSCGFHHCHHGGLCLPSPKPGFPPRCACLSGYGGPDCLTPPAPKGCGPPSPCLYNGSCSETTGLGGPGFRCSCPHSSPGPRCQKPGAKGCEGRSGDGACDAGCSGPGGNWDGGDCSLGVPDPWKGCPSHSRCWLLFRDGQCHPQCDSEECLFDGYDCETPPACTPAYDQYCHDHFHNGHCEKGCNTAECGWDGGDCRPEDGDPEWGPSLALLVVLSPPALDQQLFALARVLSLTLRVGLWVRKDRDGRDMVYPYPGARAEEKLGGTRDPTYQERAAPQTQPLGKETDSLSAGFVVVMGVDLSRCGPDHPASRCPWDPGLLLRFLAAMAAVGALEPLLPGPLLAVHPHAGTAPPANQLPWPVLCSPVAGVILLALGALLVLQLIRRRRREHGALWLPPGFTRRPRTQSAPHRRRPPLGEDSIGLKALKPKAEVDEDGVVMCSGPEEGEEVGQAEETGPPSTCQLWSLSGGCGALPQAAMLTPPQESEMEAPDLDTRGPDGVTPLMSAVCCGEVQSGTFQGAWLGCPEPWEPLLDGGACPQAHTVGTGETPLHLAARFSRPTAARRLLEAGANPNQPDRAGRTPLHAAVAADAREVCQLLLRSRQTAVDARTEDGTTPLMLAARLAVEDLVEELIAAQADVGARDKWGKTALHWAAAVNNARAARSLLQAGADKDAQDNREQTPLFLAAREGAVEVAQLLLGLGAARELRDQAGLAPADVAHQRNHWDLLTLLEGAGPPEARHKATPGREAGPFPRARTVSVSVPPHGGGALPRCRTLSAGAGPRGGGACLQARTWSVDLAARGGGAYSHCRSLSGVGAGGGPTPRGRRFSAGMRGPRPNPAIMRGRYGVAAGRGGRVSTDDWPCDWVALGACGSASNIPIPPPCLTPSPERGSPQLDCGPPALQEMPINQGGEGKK
UniProt Q9HCK4, residues 22-1378: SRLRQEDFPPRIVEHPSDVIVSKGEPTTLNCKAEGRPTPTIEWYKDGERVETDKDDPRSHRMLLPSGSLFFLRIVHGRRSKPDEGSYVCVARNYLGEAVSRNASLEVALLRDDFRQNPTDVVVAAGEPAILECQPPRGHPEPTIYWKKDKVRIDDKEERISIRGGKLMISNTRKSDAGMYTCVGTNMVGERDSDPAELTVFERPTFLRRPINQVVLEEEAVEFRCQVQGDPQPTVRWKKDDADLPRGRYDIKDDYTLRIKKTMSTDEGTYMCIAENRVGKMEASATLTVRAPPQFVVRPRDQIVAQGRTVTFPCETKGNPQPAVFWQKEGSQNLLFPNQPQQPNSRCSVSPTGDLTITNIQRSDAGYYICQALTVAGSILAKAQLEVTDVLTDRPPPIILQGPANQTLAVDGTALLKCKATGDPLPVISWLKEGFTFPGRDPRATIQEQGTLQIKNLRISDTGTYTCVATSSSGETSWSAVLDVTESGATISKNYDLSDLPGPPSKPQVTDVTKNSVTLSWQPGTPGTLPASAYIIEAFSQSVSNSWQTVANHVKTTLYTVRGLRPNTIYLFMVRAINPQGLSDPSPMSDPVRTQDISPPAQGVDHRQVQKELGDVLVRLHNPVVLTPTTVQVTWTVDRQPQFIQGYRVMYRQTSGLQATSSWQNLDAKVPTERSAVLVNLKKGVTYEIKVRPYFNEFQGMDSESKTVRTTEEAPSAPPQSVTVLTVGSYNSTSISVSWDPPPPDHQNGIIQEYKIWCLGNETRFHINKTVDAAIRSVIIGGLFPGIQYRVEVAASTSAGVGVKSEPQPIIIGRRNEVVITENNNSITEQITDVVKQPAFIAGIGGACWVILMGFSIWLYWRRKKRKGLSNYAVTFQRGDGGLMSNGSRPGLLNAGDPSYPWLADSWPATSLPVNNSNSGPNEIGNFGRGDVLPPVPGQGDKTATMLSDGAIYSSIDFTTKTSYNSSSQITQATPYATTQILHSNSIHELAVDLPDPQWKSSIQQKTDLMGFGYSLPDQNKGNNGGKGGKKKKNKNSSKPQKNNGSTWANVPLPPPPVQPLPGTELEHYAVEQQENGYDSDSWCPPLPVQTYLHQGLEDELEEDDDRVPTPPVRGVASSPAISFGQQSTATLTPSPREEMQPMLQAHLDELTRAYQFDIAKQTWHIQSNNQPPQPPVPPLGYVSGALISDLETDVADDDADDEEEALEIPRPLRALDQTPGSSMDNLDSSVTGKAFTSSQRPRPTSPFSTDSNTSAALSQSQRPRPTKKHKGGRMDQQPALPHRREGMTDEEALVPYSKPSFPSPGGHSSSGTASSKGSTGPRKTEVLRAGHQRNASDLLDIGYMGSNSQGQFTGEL

Experiment [1] deals with Endogenous NOTCH4 (HC11 cells) (UniProt P31695). Nature of the experiment: co-immunoprecipitation of endogenous proteins, HC11 lysates (FIG. 3M, n=1).
Experiment [2] has the same target. Nature of the experiment: co-immunoprecipitation with anti-ROBO1 from HC11 lysates, with and without SLIT2 and SLIT3; less complex with SLIT2/SLIT3 in late stage primed cells.
Experiment [3] deals with Endogenous ROBO1 (MDA-MB-231 and HEK293 cell lysates) (UniProt Q9Y6N7). Nature of the experiment: co-immunoprecipitation of endogenous proteins with a ROBO1 antibody, HEK cells; two intense ROBO2 bands after SLIT2 and SLIT3 treatment (1 ug each, four hours).
Experiment [4] shares this target. Briefly: co-immunoprecipitation of endogenous proteins, HEK293 lysates (FIG. 5G, n=1).
Experiment [5] concerns the target Endogenous NOTCH4 (MDA-MB-231 cell lysate) (UniProt Q99466). Nature of the experiment: co-immunoprecipitation of endogenous proteins, MDA-MB-231 lysates (FIG. 3H, n=3).
Experiment [6] shares this target. Nature of the experiment: co-immunoprecipitation of endogenous proteins, MDA-MB-231 lysates, Western blot. In general terms: A western blot detects proteins with antibodies after separation by electrophoresis.

No constants are given. Whether binding was seen depends on the method and setting. Binding seen in cells or lysates may run through a third protein. Some binding calls cover weakened binding; strength is not graded here.

With “Endogenous ROBO1 (HC11 cells) (from UniProt O89026 20-1612) (receptor)”, the binding result in experiment [1] and in experiment [2] was “binds” each time.

Regarding “Endogenous ROBO2 (HEK293 cell lysate) (from UniProt Q9HCK4 22-1378) (receptor)”, the binding result in experiment [3] and in experiment [4] was “binds” each time.

B1: Endogenous ROBO1 (MDA-MB-231 and HEK293 cell lysates) (receptor, UniProt Q9Y6N7 26-1651, looked up)
chain: QLIPDPEDVERGNDHGTPIPTSDNDDNSLGYTGSRLRQEDFPPRIVEHPSDLIVSKGEPATLNCKAEGRPTPTIEWYKGGERVETDKDDPRSHRMLLPSGSLFFLRIVHGRKSRPDEGVYVCVARNYLGEAVSHNASLEVAILRDDFRQNPSDVMVAVGEPAVMECQPPRGHPEPTISWKKDGSPLDDKDERITIRGGKLMITYTRKSDAGKYVCVGTNMVGERESEVAELTVLERPSFVKRPSNLAVTVDDSAEFKCEARGDPVPTVRWRKDDGELPKSRYEIRDDHTLKIRKVTAGDMGSYTCVAENMVGKAEASATLTVQEPPHFVVKPRDQVVALGRTVTFQCEATGNPQPAIFWRREGSQNLLFSYQPPQSSSRFSVSQTGDLTITNVQRSDVGYYICQTLNVAGSIITKAYLEVTDVIADRPPPVIRQGPVNQTVAVDGTFVLSCVATGSPVPTILWRKDGVLVSTQDSRIKQLENGVLQIRYAKLGDTGRYTCIASTPSGEATWSAYIEVQEFGVPVQPPRPTDPNLIPSAPSKPEVTDVSRNTVTLSWQPNLNSGATPTSYIIEAFSHASGSSWQTVAENVKTETSAIKGLKPNAIYLFLVRAANAYGISDPSQISDPVKTQDVLPTSQGVDHKQVQRELGNAVLHLHNPTVLSSSSIEVHWTVDQQSQYIQGYKILYRPSGANHGESDWLVFEVRTPAKNSVVIPDLRKGVNYEIKARPFFNEFQGADSEIKFAKTLEEAPSAPPQGVTVSKNDGNGTAILVSWQPPPEDTQNGMVQEYKVWCLGNETRYHINKTVDGSTFSVVIPFLVPGIRYSVEVAASTGAGSGVKSEPQFIQLDAHGNPVSPEDQVSLAQQISDVVKQPAFIAGIGAACWIILMVFSIWLYRHRKKRNGLTSTYAGIRKVPSFTFTPTVTYQRGGEAVSSGGRPGLLNISEPAAQPWLADTWPNTGNNHNDCSISCCTAGNGNSDSNLTTYSRPADCIANYNNQLDNKQTNLMLPESTVYGDVDLSNKINEMKTFNSPNLKDGRFVNPSGQPTPYATTQLIQSNLSNNMNNGSGDSGEKHWKPLGQQKQEVAPVQYNIVEQNKLNKDYRANDTVPPTIPYNQSYDQNTGGSYNSSDRGSSTSGSQGHKKGARTPKVPKQGGMNWADLLPPPPAHPPPHSNSEEYNISVDESYDQEMPCPVPPARMYLQQDELEEEEDERGPTPPVRGAASSPAAVSYSHQSTATLTPSPQEELQPMLQDCPEETGHMQHQPDRRRQPVSPPPPPRPISPPHTYGYISGPLVSDMDTDAPEEEEDEADMEVAKMQTRRLLLRGLEQTPASSVGDLESSVTGSMINGWGSASEEDNISSGRSSVSSSDGSFFTDADFAQAVAAAAEYAGLKVARRQMQDAAGRRHFHASQCPRPTSPVSTDSNMSAAVMQKTRPAKKLKHQPGHLRRETYTDDLPPPPVPPPAIKSPTAQSKTQLEVRPVVVPKLPSMDARTDRSSDRKGSSYKGREVLDGRQVVDMRTNPGDPREAQEQQNDGKGRGNKAAKRDLPPAKTHLIQEDILPYCRPTFPTSNNPRDPSSSSSMSSRGSGSRQREQANVGRRNIAEMQVLGGYERGEDNNEELEETES
notes: Endogenous full-length receptor in detergent cell lysate, immunoprecipitated with an anti-ROBO1 antibody; Human is inferred from the cell lines; also called R1
On to B1, for which the binding result in experiment [5] and in experiment [6] was “binds” in each case.
